In publication PMC8068864 one finds binding data, which are given here for 1 substance.

The chains behind the UniProt entries cited, without tags or fusion partners. Where a name states a change or a piece, a line headed by the entry shows the natural chain unless it says otherwise. A line that says so, or that is headed by a name, gives the form on record, which may keep a tag or linker.
UniProt Q6WCQ1: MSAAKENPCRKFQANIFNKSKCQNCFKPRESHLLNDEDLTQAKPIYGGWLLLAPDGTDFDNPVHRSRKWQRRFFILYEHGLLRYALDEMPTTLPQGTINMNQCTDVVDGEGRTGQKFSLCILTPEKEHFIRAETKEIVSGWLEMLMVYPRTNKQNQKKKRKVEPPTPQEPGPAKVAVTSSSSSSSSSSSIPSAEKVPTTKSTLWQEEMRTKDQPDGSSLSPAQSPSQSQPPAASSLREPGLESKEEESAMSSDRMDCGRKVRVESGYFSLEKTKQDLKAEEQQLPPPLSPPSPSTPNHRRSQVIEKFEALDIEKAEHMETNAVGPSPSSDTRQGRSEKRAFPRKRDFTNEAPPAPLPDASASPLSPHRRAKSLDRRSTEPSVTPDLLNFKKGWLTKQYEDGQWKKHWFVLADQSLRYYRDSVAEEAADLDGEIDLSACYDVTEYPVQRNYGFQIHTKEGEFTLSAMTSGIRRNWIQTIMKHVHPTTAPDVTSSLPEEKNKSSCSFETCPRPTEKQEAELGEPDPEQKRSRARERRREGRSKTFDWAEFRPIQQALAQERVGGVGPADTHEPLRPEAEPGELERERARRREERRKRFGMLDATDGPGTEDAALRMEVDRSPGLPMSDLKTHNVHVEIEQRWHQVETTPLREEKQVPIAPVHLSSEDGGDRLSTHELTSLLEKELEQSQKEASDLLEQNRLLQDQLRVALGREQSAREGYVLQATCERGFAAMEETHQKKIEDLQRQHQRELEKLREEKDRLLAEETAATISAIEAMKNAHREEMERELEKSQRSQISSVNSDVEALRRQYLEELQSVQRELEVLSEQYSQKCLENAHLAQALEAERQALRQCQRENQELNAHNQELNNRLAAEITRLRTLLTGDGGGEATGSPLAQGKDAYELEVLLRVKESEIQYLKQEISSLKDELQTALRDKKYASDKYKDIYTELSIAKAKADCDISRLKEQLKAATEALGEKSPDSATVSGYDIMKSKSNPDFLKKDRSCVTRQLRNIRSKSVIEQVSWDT
MYO1C (unconventional myosin; Nuclear Myosin 1 is an isoform of it) (O00159-3, form named): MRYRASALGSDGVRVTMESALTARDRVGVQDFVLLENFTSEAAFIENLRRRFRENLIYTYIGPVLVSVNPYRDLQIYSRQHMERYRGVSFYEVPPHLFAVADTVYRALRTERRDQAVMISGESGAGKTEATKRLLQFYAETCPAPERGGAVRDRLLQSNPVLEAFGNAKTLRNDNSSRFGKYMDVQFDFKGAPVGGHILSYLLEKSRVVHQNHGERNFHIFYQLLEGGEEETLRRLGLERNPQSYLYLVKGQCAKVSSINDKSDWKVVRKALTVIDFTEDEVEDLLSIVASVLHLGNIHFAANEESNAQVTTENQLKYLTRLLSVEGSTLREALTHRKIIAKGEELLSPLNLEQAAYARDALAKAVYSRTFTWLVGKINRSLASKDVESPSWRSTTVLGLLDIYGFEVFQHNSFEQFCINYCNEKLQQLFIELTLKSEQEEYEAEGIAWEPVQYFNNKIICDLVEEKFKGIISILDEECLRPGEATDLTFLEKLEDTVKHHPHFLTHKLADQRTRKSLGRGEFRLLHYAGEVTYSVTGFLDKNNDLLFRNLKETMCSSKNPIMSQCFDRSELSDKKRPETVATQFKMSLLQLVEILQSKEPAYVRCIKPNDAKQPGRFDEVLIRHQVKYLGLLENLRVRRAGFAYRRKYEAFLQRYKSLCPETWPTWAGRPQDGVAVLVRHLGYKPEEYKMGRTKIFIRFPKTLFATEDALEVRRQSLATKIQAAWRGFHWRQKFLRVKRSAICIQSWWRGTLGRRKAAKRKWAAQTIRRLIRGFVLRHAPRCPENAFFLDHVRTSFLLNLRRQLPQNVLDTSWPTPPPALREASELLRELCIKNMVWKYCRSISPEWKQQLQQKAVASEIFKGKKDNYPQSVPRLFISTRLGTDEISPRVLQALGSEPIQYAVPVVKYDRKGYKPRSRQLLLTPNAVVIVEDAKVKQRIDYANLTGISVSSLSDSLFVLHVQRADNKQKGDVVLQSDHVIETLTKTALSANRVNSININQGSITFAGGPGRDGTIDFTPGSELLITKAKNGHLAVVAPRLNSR

The experiment deals with Myosin phosphatase rho-interacting protein (MPRIP) (human (endogenous in HeLa)) (UniProt Q6WCQ1). Kind of experiment: co-IP; 1 mg HeLa nuclear lysate with 2 µg anti-MPRIP antibody at 4 °C overnight, G-protein magnetic beads 1 h at 4 °C, 5 washes (150 mM NaCl, 1.0% NP-40, 50 mM Tris pH 7.4, 1 mM DTT), Western blot; control non-specific rabbit IgG. (In general: A western blot detects proteins with antibodies after separation by electrophoresis.)

Results are given in words; binding and its absence hold for the method and conditions named. Binding seen in cells or lysates may run through a third protein. Some entries that bind do so weakly or less than the wild type.

Turning to “MYO1C (unconventional myosin; Nuclear Myosin 1 is an isoform of it) (from UniProt O00159-3 1-1044)”, the binding entry was “binds”.
